Measurements as given in patent US20080033031A1, “ANTIBIOTIC COMPOUNDS, COMPOSITIONS AND METHODS OF TREATMENT” (priority 2004, published 2008).
At least one compound was matched to its structure with a doubt left. Some results were stated once for a whole list of compounds, not compound by compound.

Assay: Stability studies with benzoyl peroxide in buffer solutions
Type: physicochemical
Settings: 1% analog with 5% BPO, pH 3 buffer, 50° C.; for loss of active in the sample: after 4 weeks of storage
Experimental: The concentrations of each of the clindamycin analogs and BPO in the mixtures were 1% (w/w) and 5% (w/w), respectively.
Samples were prepared by dissolving each of the clindamycin analogs and suspending the BPO powder in the buffer solutions of different pHs. Samples were placed either at RT or at 50° C. Samples were pulled at time intervals and tested for the appropriate clindamycin analog and pH.
The figures show the plots of the percent remaining (% of initial) of the clindamycin analog versus time. The percent of initial is obtained by normalizing the concentration at each time point to the initial concentration.

| SMILES | loss of active in the sample | remained in the solution (% of initial) (after 8 weeks of storage) |
| --- | --- | --- |
| CCC[C@@H]1CC(C(=O)NC(C(C)Cl)[C@H]2O[C@H](S(C)(=O)=O)[C@H](O)[C@@H](O)[C@H]2O)N(C)C1 (stereo partly drawn) [CSO2, Clindamycin sulfone] | less than 10% |  |
| CCC[C@@H]1C[C@@H](C(=O)N[C@@H]([C@H]2O[C@H](SC)[C@H](OP(=O)(O)O)[C@@H](O)[C@H]2O)[C@H](C)Cl)N(C)C1 [Clindamycin phosphate USP, Clindamycin phosphate, reference compound] | 40% | about 30% |
